Laboratory results published in PubChem BioAssay AID1347075 (National Center for Advancing Translational Sciences (NCATS), 2019).
Hit rate of the full screen: of about 400,000 compounds, about 5,500 (1.4%) were called active. Inconclusive results, whose numbers are uncertain, are shown with a selection of clear calls. Calls follow the shape of the dose curve; as a rule, active = well fitted cell-killing curve with a large enough effect; inconclusive = small, poorly fitted or top-dose-only effect, or effect the other way; inactive = flat fitted curve, though single readings scatter. Potencies beside an inconclusive call are fits to weak or partial responses and may not hold up.

test: qHTS assay for MDR1-selective chemotherapeutics: Primary screen using the parental adenocarcinoma cell KB-3-1; settings: KB-3-1 viability, CellTiter-Glo ATP luminescence, 72 h; activity change, negative = cytotoxic: at 46.1 µM (top of the series); also: nearly all actives have a fitted effect of over 60% in size
Method in brief: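 Using CellTiter-Glo luminescence, growth of non-resistant KB-3-1 adenocarcinoma cells is assessed 72 h after pin-tool compound addition at 37 °C. Normalized responses across the concentration series yield fitted curves.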
% is scaled to controls: 0 for no effect and ±100 for the full control effect; potency is read from the fitted curve at half-maximal effect.

Structure (SMILES) | Potency | activity change, negative = cytotoxic
c1ccc(COc2ncnc3c2ncn3CCCNCC(c2ccccc2)c2ccccc2)cc1 | inconclusive: 29.1 µM [cytotoxic, single point] | 
c1ccc(-c2csc3ncnc(N4CCc5ccccc5C4)c23)cc1 | inconclusive: 18.4 µM [cytotoxic, single point] | 
CCCC(=O)Nc1ccccc1Sc1ncnc2scc(-c3ccccc3)c12 |  | inactive: 0%
O=c1[nH]c(=S)[nH]c2c1C(c1ccc(Cl)c(Cl)c1)OC(CCc1ccccc1)C2 (stereo not drawn) | inconclusive: 23.1 µM [cytotoxic, single point] | 
O=C(NCC1CC1)c1ccc2nc(-c3ccoc3)c(-c3ccoc3)nc2c1 |  | inactive: 30%
O=C(C1CCN(c2ncnc3c2nc2n3CCCCC2)CC1)N1CCN(c2ccc(F)cc2)CC1 | inconclusive: 13 µM [cytotoxic, partial curve, poor fit] | 
COc1cc(/C=N/N(C)C)ccc1OC(=O)c1ccco1 | inconclusive: 29.1 µM [cytotoxic, single point] | 
C[C@@H]1CN([C@@H](C)CO)C(=O)c2cc(NC(=O)C3CCCCC3)ccc2O[C@@H](C)CCCCO[C@@H]1CN(C)C(=O)CCCN(C)C |  | inactive: 10.6%
O=C(c1ccc(S(=O)(=O)c2ccccc2Cl)c([N+](=O)[O-])c1)N1CCCCCC1 | inconclusive: 29.1 µM [cytotoxic, single point] | 
N#Cc1c(N)nc2c(c1-c1ccc(Br)s1)CCCC2 | inconclusive: 29.1 µM [cytotoxic, single point] | 
CC(C)(C)NC(=O)CN1CCN(C(=O)CCl)CC1 | inconclusive: 32.6 µM [cytotoxic, single point] | 
COc1ccc(-c2cc(C(F)(F)F)n3nc(C(=O)NCCCn4ccnc4)cc3n2)cc1 |  | inactive: 10.7%
O=C(NCc1ccncc1)[C@@H]1CCCN1C(=O)[C@H]1CCCN1C(=O)c1cccs1 | inconclusive: 32.6 µM [rising, partial curve, poor fit] | 
CCN(Cc1nc(-c2ccc(OC)cc2)no1)C(=O)c1ccoc1C | inconclusive: 20.6 µM [rising, partial curve] | 
Cc1ccc(NS(=O)(=O)c2ccc(C(=O)N3CCN(c4ccccn4)CC3)cc2)cc1 | inconclusive: 20.6 µM [cytotoxic, single point] | 
COC(=O)c1ccc2nc(-c3ccc(F)cc3)c(Cc3cccc(Cl)c3)n2c1 | inconclusive: 29.1 µM [cytotoxic, single point] | 
CCOC(=O)/C(=C\c1ccc([N+](=O)[O-])cc1)C(=O)c1cc(C(C)=O)c(Nc2ccccc2)s1 | active: 3.26 µM | 
Cn1c(-c2sccc2OCc2ccc(Cl)cc2Cl)n[nH]c1=S | inconclusive: 23.1 µM [cytotoxic, partial curve, poor fit] | 
CCC(C)Oc1nc(C)cc(C)c1S(=O)(=O)c1ccccc1C (stereo not drawn) | inconclusive: 20.6 µM [cytotoxic, single point] | 
COc1ccc(F)cc1C(=O)C1CCCN(C(=O)c2ccccc2N(C)C)C1 (stereo not drawn) | inconclusive: 29.1 µM [cytotoxic, single point] | 
CC(C)Oc1ccc(CN2CCC2(C)C(=O)Nc2cccc(Oc3ccccc3)c2)cc1 (stereo not drawn) | inconclusive: 29.1 µM [cytotoxic, single point] | 
CN1CCN(CCOC2Cc3ccccc3Sc3ccc(Cl)cc32)CC1 (stereo not drawn) | inconclusive: 25.9 µM [cytotoxic, single point] | 
CCN(CC)S(=O)(=O)c1cc(NC(=O)C2CC(=O)N(Cc3ccccc3)C2)ccc1Cl (stereo not drawn) | inconclusive: 18.4 µM [cytotoxic, partial curve] | 

Structure (SMILES) | Potency | activity change, negative = cytotoxic
Cc1ccc(CCNC(=O)c2cn(C)c3ccc(S(=O)(=O)N(C)C4CCCCC4)cc3c2=O)cc1 |  | inactive: 0%
CCC1=Nc2cc(C(=O)NCC(C)c3ccccc3)ccc2Sc2ccc(C)cc21 (stereo not drawn) | inconclusive: 23.1 µM [cytotoxic, single point] | 
O=C(O)CSc1nc2ccccc2[nH]1 |  | inactive: -6.93%
Cc1cc2[nH]c3c(c[n+](C)c4ccccc34)c2cc1C | inconclusive: 2.31 µM [cytotoxic, full curve, poor fit] | 
COc1ccc(-c2cc(-c3cccs3)nc(OC)c2C#N)cc1OC | inconclusive: 18.4 µM [cytotoxic, partial curve] | 
COc1ccc(CNS(=O)(=O)c2cc3c(cc2C)N(C)CCO3)cc1 | inconclusive: 18.4 µM [cytotoxic, single point] | 
Cc1cc(C)c(C(CC(=O)c2cccs2)C(C#N)C#N)c(C)c1 (stereo not drawn) | inconclusive: 20.6 µM [cytotoxic, single point] | 
O=C(NCc1ccco1)C1CCCN(S(=O)(=O)c2cc(Cl)ccc2Cl)C1 (stereo not drawn) | inconclusive: 25.9 µM [cytotoxic, partial curve, poor fit] | 
O=C(CC1SC(=Nc2ccccc2)N(CCCO)C1=O)Nc1ccc(Cl)cc1 (stereo not drawn) | inconclusive: 16.4 µM [cytotoxic, partial curve, poor fit] | 
O=C(NCc1ccc(Cl)cc1)c1ccc2ccccc2n1 |  | inactive: 0.896%
Cc1c(NC(=O)c2ccc(Br)s2)c(=O)n(-c2ccccc2)n1C |  | inactive: 3.65%
Nc1cc(S(=O)(=O)N2CCOCC2)ccc1Oc1cccc(Br)c1 |  | inactive: -30.3%
Cc1ccc2c(c1)N(C)/C(=C/c1cccc[n+]1CCO)S2 | active: 1.84 µM | 
CN1CCN(c2ncnc3c2ncn3[C@H]2CN(Cc3ccncc3)C[C@@H](CO)O2)CC1 | inconclusive: 10.3 µM [cytotoxic, partial curve, poor fit] | 
CCOc1cc(C(=O)Nc2ccc(C)cc2C)ccc1OCC(=O)N1CCCCC1 |  | inactive: 0.805%
CC(C)c1cccc(-c2ccc3c(c2)S(=O)(=O)c2cccc(C(=O)NCc4ccccc4Cl)c2C3=O)c1 | active: 6.51 µM | 
Cc1cccc(C)c1NC(=S)NC(=O)c1ccccc1F |  | inactive: -8.28%
O=C(CN1CCCCC1)NC(=O)NC1CCCC1 |  | inactive: 12.1%
COc1ccc(NC(=O)c2ccccn2)cc1 | inconclusive: 13 µM [cytotoxic, partial curve] | 
CCN(CC)CCNC(=O)C1CCN(c2cc(C)nc3c(-c4ccc(Cl)cc4)c(C)nn23)CC1 | inconclusive: 2.91 µM [cytotoxic, partial curve, poor fit] | 
COc1ccc(-c2cn3nc4c(nc3n2)CCCC4)cc1 | inconclusive: 29.1 µM [cytotoxic, single point] | 
O=C(CSc1nc2ccccc2c(=O)n1NC(=O)Cc1ccccc1)NCc1ccco1 |  | inactive: -13.2%
COc1ccc(Nc2nc3cc(C)ccc3cc2C#N)c(OC)c1 | active: 2.06 µM | 

Structure (SMILES) | Potency | activity change, negative = cytotoxic
Cc1ccccc1-c1ncc(CN2CCC(CO)(CCCc3ccccc3)CC2)cn1 | inconclusive: 20.6 µM [cytotoxic, partial curve] | 
CCn1c(SCC(=O)Nc2ccc(F)cc2)nnc1-c1cnccn1 |  | inactive: -15.7%
N#C/C(=C\c1cccc(Br)c1)C(=O)N1CCCCC1 | inconclusive: 29.1 µM [cytotoxic, single point] | 
S=C(NN=Cc1ccccn1)Nc1ccccn1 | inconclusive: 29.1 µM [cytotoxic, single point] | 
CC(C)C1C(=O)N(Cc2cn(CCC3OCCCO3)nn2)CCS(=O)(=O)N1Cc1ccc(-c2ccncc2)cc1 (stereo not drawn) | active: 16.4 µM | 
Cc1ccccc1OCC(=O)Nc1ccccc1-c1ccccc1NC(=O)COc1ccccc1C | inconclusive: 10.3 µM [cytotoxic, single point] | 
Cc1cc(C)cc(NC(=O)C(Nc2ccccc2)c2ccccc2)c1 (stereo not drawn) | inconclusive: 23.1 µM [cytotoxic, single point] | 
Cc1ccc2c(c1)S(=O)(=O)N(C)C(c1ccccc1)=C2 |  | inactive: -5.76%
COc1ccccc1/C=C/c1cncc(/C=C/c2ccccc2OC)c1 |  | inconclusive: -65.1%
Nc1ccc2nc(SCC(=O)Nc3ccc(N4CCOCC4)c(Cl)c3)sc2c1 | inconclusive: 10.3 µM [cytotoxic, partial curve] | 
Cc1ccc(CN2CCCn3nc(C(=O)NCc4ccc(OC(C)C)cc4)cc3C2=O)cc1 | inconclusive: 25.9 µM [cytotoxic, single point] | 
O=S(=O)(c1ccccc1)N1CCN=C1SCc1cccc(Cl)c1 | inconclusive: 29.1 µM [cytotoxic, single point] | 
CCCCOc1ccc(S(=O)(=O)N2CCN(C)CC2)cc1 |  | inactive: -5.41%
COc1ccc(-c2c(-c3ccc(S(C)(=O)=O)cc3)sc3ccc(OC)cc23)cc1 | inconclusive: 32.6 µM [cytotoxic, single point] | 
CCCCCCCCCCCCCCCC[n+]1ccc(C(N)=O)cc1 | inconclusive: 18.4 µM [cytotoxic, single point] | 
O=C(c1cccc(F)c1)N1CCC(N2CCCCCC2)CC1 |  | inactive: 12.1%
Cc1nc2cc(C(F)(F)F)ccc2n1C1CCN(CC(=O)NC(C)(C)C)CC1 | inconclusive: 29.1 µM [cytotoxic, single point] | 
O=C(NCC1CCCCC1)c1ccc2sc([C@H]3C[C@H](O)[C@@H](CO)O3)nc2c1 | inconclusive: 0.0116 µM [rising, full curve] | 
Cc1ccc(Nc2nc(N)c([N+](=O)[O-])c(NCc3ccco3)n2)cc1C | active: 23.1 µM | 
CCOc1ccc(-c2n[nH]c(C)c2Oc2ccccc2OC)c(O)c1 | inconclusive: 14.6 µM [cytotoxic, partial curve] | 
CCCN(CCC)CCNC(=O)c1cc2c(-c3ccc(Cl)cc3)nn(C)c2s1 | active: 16.4 µM | 
CCOc1ccc2nc(NC(=O)CSc3nc4c(c(=O)n(C)c(=O)n4C)n3C(C)C)sc2c1 | inconclusive: 23.1 µM [cytotoxic, single point] | 

A second format for part of the listing above:
Structure (SMILES)	Potency	activity change, negative = cytotoxic
CC(C)(C)NC(=O)CN1CCN(C(=O)CCl)CC1	inconclusive: 32.6 µM [cytotoxic, single point]	
O=C(NCc1ccncc1)[C@@H]1CCCN1C(=O)[C@H]1CCCN1C(=O)c1cccs1	inconclusive: 32.6 µM [rising, partial curve, poor fit]	
CCN(Cc1nc(-c2ccc(OC)cc2)no1)C(=O)c1ccoc1C	inconclusive: 20.6 µM [rising, partial curve]	
CCC1=Nc2cc(C(=O)NCC(C)c3ccccc3)ccc2Sc2ccc(C)cc21 (stereo not drawn)	inconclusive: 23.1 µM [cytotoxic, single point]	
COc1ccc(-c2cc(-c3cccs3)nc(OC)c2C#N)cc1OC	inconclusive: 18.4 µM [cytotoxic, partial curve]	
O=C(NCc1ccco1)C1CCCN(S(=O)(=O)c2cc(Cl)ccc2Cl)C1 (stereo not drawn)	inconclusive: 25.9 µM [cytotoxic, partial curve, poor fit]	
Cc1c(NC(=O)c2ccc(Br)s2)c(=O)n(-c2ccccc2)n1C		inactive: 3.65%
COc1ccc(NC(=O)c2ccccn2)cc1	inconclusive: 13 µM [cytotoxic, partial curve]	
O=C(CSc1nc2ccccc2c(=O)n1NC(=O)Cc1ccccc1)NCc1ccco1		inactive: -13.2%
Cc1ccccc1-c1ncc(CN2CCC(CO)(CCCc3ccccc3)CC2)cn1	inconclusive: 20.6 µM [cytotoxic, partial curve]	
COc1ccccc1/C=C/c1cncc(/C=C/c2ccccc2OC)c1		inconclusive: -65.1%
COc1ccc(-c2c(-c3ccc(S(C)(=O)=O)cc3)sc3ccc(OC)cc23)cc1	inconclusive: 32.6 µM [cytotoxic, single point]	
CCCCCCCCCCCCCCCC[n+]1ccc(C(N)=O)cc1	inconclusive: 18.4 µM [cytotoxic, single point]	
O=C(c1cccc(F)c1)N1CCC(N2CCCCCC2)CC1		inactive: 12.1%
Cc1ccc(Nc2nc(N)c([N+](=O)[O-])c(NCc3ccco3)n2)cc1C	active: 23.1 µM	
CCCN(CCC)CCNC(=O)c1cc2c(-c3ccc(Cl)cc3)nn(C)c2s1	active: 16.4 µM	
CCOc1ccc2nc(NC(=O)CSc3nc4c(c(=O)n(C)c(=O)n4C)n3C(C)C)sc2c1	inconclusive: 23.1 µM [cytotoxic, single point]	
